Assay results from publication PMC2777385.
Results are given in words; binding and its absence hold for the method and conditions named. In cells and extracts the contact can be indirect. Some binding calls cover weakened binding; strength is not graded here.

Chains of the proteins cited; added tags and fusions are not shown. Residues count along the entry.
UniProt P24369, residues 34-216: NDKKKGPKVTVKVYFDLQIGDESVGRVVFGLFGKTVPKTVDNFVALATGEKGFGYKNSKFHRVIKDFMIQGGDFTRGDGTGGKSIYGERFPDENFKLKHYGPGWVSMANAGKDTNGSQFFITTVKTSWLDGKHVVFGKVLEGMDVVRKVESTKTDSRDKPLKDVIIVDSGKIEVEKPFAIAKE

Tests used:
GST-cyclophilin B [1] = target: GST-cyclophilin B (UniProt P24369); experiment: pull-down; as a3, GST-CypB with fibroblast lysates on glutathione-agarose, in the presence of cyclosporine A; western blot for P3H1; only the target purified
GST-cyclophilin B [2] = target: GST-cyclophilin B (UniProt P24369); experiment: pull-down; lysates of wild-type (and CypB-knockout) mouse fibroblasts mixed with recombinant GST-cyclophilin B or GST; bound proteins isolated on GSH-agarose, washed in lysis buffer (1% NP-40, 20 mM HEPES pH 7.4, 5 mM NaCl), western blot; only the target purified

binding (GST-cyclophilin B [1]): binds
binding (GST-cyclophilin B [2]): binds
B1: Prolyl-3-hydroxylase-1 (P3H1), mouse fibroblasts (enzyme, UniProt Q3V1T4 26-739)
chain: ESEPGWDVAAPDLLYAEGTAAYSRGDWPGVVLNMERALRSRAALRALRLRCRTRCATELPWAPDLDLGPDPSLSQDPGAAALHDLRFFGAVLRRAACLRRCLGPPSAHLLSEELDLEFNKRSPYNYLQVAYFKINKLEKAVAAAHTFFVGNPEHMEMRQNLDYYQTMSGVKEADFRDLEAKPHMHEFRLGVRLYSEEKPQEAVPHLEAALQEYFVADEECRALCEGPYDYDGYNYLDYSADLFQAITDHYVQVLNCKQNCVTELASHPSREKPFEDFLPSHYNYLQFAYYNIGNYTQAIECAKTYLLFFPNDEVMHQNLAYYTAMLGEEEASSISPRENAEEYRRRSLLEKELLFFAYDIFGIPFVDPDSWTPEEVIPKRLQEKQKSERETAVRISQEIGNLMKEIETLVEEKTKESLDVSRLTREGGPLLYEGISLTMNSKVLNGSQRVVMDGVISDDECQELQRLTNAAATSGDGYRGQTSPHTPNEKFYGVTVLKALKLGQEGKVPLQSARMYYNVTEKVRRVMESYFRLDTPLYFSYSHLVCRTAIEESQAERKDSSHPVHVDNCILNAEALMCIKEPPAYTFRDYSAILYLNGDFDGGNFYFTELDAKTVTAEVQPQCGRAVGFSSGTENPHGVKAVTRGQRCAIALWFTLDPRHSERDRVQADDLVKMLFSPEEVDLPQEQPLPDQQGSPEPGEESLSDRGSLHKDEL
